{"source": "PubChem BioAssay AID540276", "about": "(National Center for Advancing Translational Sciences (NCATS), 2011)", "note": "About 5,400 (1.8%) of roughly 300,000 compounds were called active. The shares of active, inactive and inconclusive entries below differ from those in the screen. Calls follow the shape of the full dose curve; tested in HEK293 cells. Where the call is inconclusive, the potency comes from a doubtful curve fit. Potency is read from the fitted curve at half-maximal effect.", "data": [{"experiment": "qHTS for inhibitors of binding or entry into cells for Marburg Virus", "settings": "Marburg virus pseudotyped entry inhibition, cell reporter; series mostly up to 37.8 µM", "values": [{"molecule": "CC(=O)c1ccc(N(CC(=O)NC2CCCC2)C(=O)c2ccc(C)s2)cc1", "Potency": "inconclusive: 7.08 µM [inhibitor, partial curve, poor fit]"}, {"molecule": "COc1ccc(Cn2c(C)c(C)c(C#N)c2NC(=O)Nc2cccc(C)c2)cc1", "Potency": "inconclusive: 35.5 µM [inhibitor, single point]"}, {"molecule": "Cc1nnc(SCC(=O)c2ccc(Br)cc2)s1", "Potency": "inactive"}, {"molecule": "COc1ccc(S(=O)(=O)N2CCOC2CNC(=O)C(=O)NCCN2CCOCC2)cc1OC", "note": "(stereo not drawn)", "Potency": "inconclusive: 5.62 µM [activator, single point]"}, {"molecule": "O=C(/C=C/c1ccco1)Nc1ccc(N2CCCC2)cc1", "Potency": "inconclusive: 0.282 µM [activator, single point]"}, {"molecule": "COc1cc2c(cc1OC)[C@@H]1O[C@](c3ccsc3)(C2)Oc2cc(C)n(Cc3ccccc3)c(=O)c21", "Potency": "inactive"}, {"molecule": "Cc1cccc(/C=C/c2onc(C)c2[N+](=O)[O-])n1", "Potency": "inactive"}, {"molecule": "Cc1ccc(C(=O)Oc2ccc(N3C(=O)CCC3=O)c(C)c2)cc1", "Potency": "inconclusive: 35.5 µM [activator, single point]"}, {"molecule": "Cn1c(SCC(=O)c2ccc(F)cc2)nnc1-c1ccccc1Br", "Potency": "inconclusive: 31.6 µM [activator, single point]"}, {"molecule": "COc1ccc(C)cc1NC(=O)CSc1ccc(-c2ccccn2)nn1", "Potency": "inconclusive: 22.4 µM [inhibitor, single point]"}, {"molecule": "Cc1ccc(/C=C2/SC(=S)N(CCCC(=O)Nc3ccc(O)cc3)C2=O)cc1", "Potency": "inconclusive: 3.98 µM [inhibitor, full curve, poor fit]"}, {"molecule": "Cc1nn(CCOc2ccccc2)c(=O)n1-c1ccc(F)cc1", "Potency": "inactive"}, {"molecule": "COc1ccccc1NS(=O)(=O)c1cc(C(=O)NCC(C)(C)N2CCOCC2)ccc1C", "Potency": "inactive"}, {"molecule": "COC(=O)Cn1c(=O)cnc2ccccc21", "Potency": "inactive"}, {"molecule": "O=C(NC(=S)NCCOCc1ccc(Cl)cc1)c1cccnc1", "Potency": "inconclusive: 0.447 µM [inhibitor, single point]"}, {"molecule": "Cc1cccc(NC(=O)c2oc3ccccc3c2NC(=O)c2cc(=O)c3cc(Cl)ccc3o2)c1", "Potency": "inconclusive: 6.31 µM [inhibitor, single point]"}, {"molecule": "CN(C)c1cnn(-c2ccccc2)c(=O)c1Cl", "Potency": "inconclusive: 35.5 µM [activator, single point]"}, {"molecule": "Cc1nc(CC(=O)Nc2nc(C(C)(C)C)cs2)cs1", "Potency": "inconclusive: 0.146 µM [inhibitor, full curve, poor fit]"}, {"molecule": "O=C(CCN1C(=O)C2CC=CCC2C1=O)N1CCN(C2=NCCCC2)CC1", "note": "(stereo not drawn)", "Potency": "inactive"}, {"molecule": "CCNc1ccccc1CP(=O)(c1ccccc1)c1ccccc1O", "note": "(stereo not drawn)", "Potency": "inactive"}, {"molecule": "O=C(Cc1csc(-c2ccccc2)n1)NCc1ccccc1F", "Potency": "inconclusive: 0.164 µM [inhibitor, full curve, poor fit]"}, {"molecule": "COc1ccc(C2NC(=O)c3ccccc3O2)c(OC)c1OC", "note": "(stereo not drawn)", "Potency": "inactive"}, {"molecule": "CC(=O)c1c(C)[nH]c(C(=O)OCC(=O)Nc2ccc(C)cc2[N+](=O)[O-])c1C", "Potency": "inconclusive: 6.51 µM [inhibitor, single point]"}, {"molecule": "Cc1ccc(C2Nc3ccccc3NC3=C2C(=O)CC(C)(C)C3)c(O)c1", "note": "(stereo not drawn)", "Potency": "inactive"}, {"molecule": "COc1cccc(C(=O)Nc2ccc3nc(N4CCC(C)CC4)cc(C)c3c2)c1", "Potency": "inconclusive: 35.5 µM [inhibitor, single point]"}, {"molecule": "O=C(Cc1ccc(F)cc1)Nc1ccc(S(=O)(=O)N2CCCCC2)cc1", "Potency": "inconclusive: 12.6 µM [inhibitor, single point]"}, {"molecule": "CC(=O)Nc1c(C)nn(-c2ccc([N+](=O)[O-])cc2)c1C", "Potency": "inactive"}, {"molecule": "CC(C)(C)c1ccc(-c2cc(C(=O)NNC(=O)Nc3ccccc3)c3ccccc3n2)cc1", "Potency": "inconclusive: 7.08 µM [inhibitor, partial curve, poor fit]"}, {"molecule": "Cc1[nH][nH]c(=O)c1C(c1c(C)[nH][nH]c1=O)c1cn(Cc2cccc3ccccc23)c2ccccc12", "Potency": "inconclusive: 8.91 µM [inhibitor, partial curve, poor fit]"}, {"molecule": "O=C(COC(=O)c1cccc(NC(=O)c2ccc(Br)cc2)c1)c1ccc(Br)cc1", "Potency": "inconclusive: 3.55 µM [activator, partial curve, poor fit]"}, {"molecule": "CN(C1=C(N2CCOCC2)C(=O)c2ccccc2C1=O)c1ccccc1", "Potency": "inactive"}, {"molecule": "COc1ccc(N=C2S/C(=C\\c3ccco3)C(=O)N2CC(C)C)cc1", "Potency": "inactive"}, {"molecule": "CC(C)CN1CCN(CCCOC(=O)Nc2cccc3ccccc23)CC1C", "note": "(stereo not drawn)", "Potency": "inconclusive: 1.58 µM [inhibitor, partial curve, poor fit]"}, {"molecule": "Cc1nn(Cc2ccccc2Cl)c(Cl)c1/C=C/C(=O)OCC(=O)NC(N)=O", "Potency": "inconclusive: 0.891 µM [inhibitor, full curve]"}, {"molecule": "COc1ccc(-n2cccc2C=O)cc1", "Potency": "inconclusive: 3.55 µM [activator, single point]"}, {"molecule": "COc1ccc(C)cc1Nc1nc(C)nc2sc(C)cc12", "Potency": "inconclusive: 3.55 µM [inhibitor, partial curve, poor fit]"}, {"molecule": "Cc1cccc(N2CCN(CCCNC(=O)c3nnc(Cc4c(F)cccc4Cl)o3)CC2C)c1", "note": "(stereo not drawn)", "Potency": "inconclusive: 35.5 µM [inhibitor, single point]"}, {"molecule": "COc1ccc(C(=O)Nc2ccccc2C(=O)Nc2ccncc2)cc1", "Potency": "inconclusive: 11.2 µM [inhibitor, partial curve, poor fit]"}, {"molecule": "CC1CC(C)CN(C(=O)c2cccc(S(=O)(=O)N(C)c3ccccc3)c2)C1", "note": "(stereo not drawn)", "Potency": "inconclusive: 11.2 µM [inhibitor, partial curve, poor fit]"}, {"molecule": "Cc1ccc2nc(NC(=O)COC(=O)c3ccncc3)sc2c1", "Potency": "inconclusive: 3.98 µM [activator, partial curve, poor fit]"}, {"molecule": "Cn1c(=O)c2c(nc(CN3CCN(c4ccccc4)CC3)n2CCCc2ccccc2)n(C)c1=O", "Potency": "inactive"}, {"molecule": "CC(C)CN(C(=O)COC(=O)c1ccccc1NCc1ccco1)c1c(N)n(Cc2ccccc2)c(=O)[nH]c1=O", "Potency": "inactive"}, {"molecule": "Cc1ccc(S(=O)(=O)N2CCC(=O)N(C(COCc3cccc(Cl)c3)Cc3ccccc3)CC2)cc1", "note": "(stereo not drawn)", "Potency": "inconclusive: 23.1 µM [inhibitor, single point]"}]}]}
